From article PMC7862700
The list shows a part of the results, in another mix than the full data. At the low end of the ranking, values are background and their order means little.

Sequences of proteins named here, by UniProt entry; tags and fusion partners are left off. A change or cut given only in a name is not applied to a line headed by its entry.
UniProt Q01892: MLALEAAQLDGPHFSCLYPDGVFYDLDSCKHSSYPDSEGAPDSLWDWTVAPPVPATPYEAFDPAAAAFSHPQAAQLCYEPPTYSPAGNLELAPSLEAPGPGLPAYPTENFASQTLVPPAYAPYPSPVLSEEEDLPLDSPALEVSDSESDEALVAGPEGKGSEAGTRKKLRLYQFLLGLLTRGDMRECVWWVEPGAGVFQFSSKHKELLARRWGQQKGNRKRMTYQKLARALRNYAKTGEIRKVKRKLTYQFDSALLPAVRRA
UniProt P41161: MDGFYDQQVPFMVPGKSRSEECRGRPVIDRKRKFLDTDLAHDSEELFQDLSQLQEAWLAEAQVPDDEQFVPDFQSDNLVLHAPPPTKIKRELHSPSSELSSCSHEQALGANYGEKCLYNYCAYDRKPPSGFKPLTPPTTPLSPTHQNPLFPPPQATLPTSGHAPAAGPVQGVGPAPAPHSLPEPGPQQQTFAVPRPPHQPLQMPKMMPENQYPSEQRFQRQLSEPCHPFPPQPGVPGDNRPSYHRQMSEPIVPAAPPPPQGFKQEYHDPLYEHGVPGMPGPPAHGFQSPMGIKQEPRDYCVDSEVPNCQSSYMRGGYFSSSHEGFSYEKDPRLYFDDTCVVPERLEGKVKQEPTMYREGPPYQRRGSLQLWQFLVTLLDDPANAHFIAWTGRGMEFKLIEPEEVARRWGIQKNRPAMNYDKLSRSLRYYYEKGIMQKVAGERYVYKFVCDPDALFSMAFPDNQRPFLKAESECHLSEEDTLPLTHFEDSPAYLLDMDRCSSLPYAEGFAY
UniProt Q99607: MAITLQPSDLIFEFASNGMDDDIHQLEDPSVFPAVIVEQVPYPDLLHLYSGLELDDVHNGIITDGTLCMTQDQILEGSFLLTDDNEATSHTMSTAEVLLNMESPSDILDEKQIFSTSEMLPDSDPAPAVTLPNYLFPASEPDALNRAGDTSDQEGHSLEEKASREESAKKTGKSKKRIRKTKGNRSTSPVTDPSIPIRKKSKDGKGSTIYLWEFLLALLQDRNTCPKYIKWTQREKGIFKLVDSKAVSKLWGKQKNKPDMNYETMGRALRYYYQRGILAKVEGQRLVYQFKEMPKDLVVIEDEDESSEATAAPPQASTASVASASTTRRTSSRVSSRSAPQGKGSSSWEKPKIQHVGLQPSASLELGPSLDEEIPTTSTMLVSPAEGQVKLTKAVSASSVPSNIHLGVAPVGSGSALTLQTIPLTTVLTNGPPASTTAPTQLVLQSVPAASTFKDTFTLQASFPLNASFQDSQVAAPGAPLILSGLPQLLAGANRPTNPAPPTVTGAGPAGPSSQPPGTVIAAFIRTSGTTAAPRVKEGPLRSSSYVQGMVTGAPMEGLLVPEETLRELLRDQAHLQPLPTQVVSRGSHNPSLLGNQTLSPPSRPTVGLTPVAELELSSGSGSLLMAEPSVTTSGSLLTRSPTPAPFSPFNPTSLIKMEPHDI

Key:
Assay in all cases: DAPPL (digital affinity profiling via proximity ligation, sequencing)
Conditions in all cases: 10 mM Tris-HCl pH 7.5, 50 mM NaCl, 1 mM DTT, 4% glycerol, room temperature, 30 min; GST-TFs on glutathione beads, 16-mer random dsDNA library, 0.1% …; high values mean tight binding; double strand, one strand shown; scale: fold enrichment (6-mer frequency, TF over GST control)
FLI1 = target: T1, FLI1 (UniProt Q01543)
T1 sequence: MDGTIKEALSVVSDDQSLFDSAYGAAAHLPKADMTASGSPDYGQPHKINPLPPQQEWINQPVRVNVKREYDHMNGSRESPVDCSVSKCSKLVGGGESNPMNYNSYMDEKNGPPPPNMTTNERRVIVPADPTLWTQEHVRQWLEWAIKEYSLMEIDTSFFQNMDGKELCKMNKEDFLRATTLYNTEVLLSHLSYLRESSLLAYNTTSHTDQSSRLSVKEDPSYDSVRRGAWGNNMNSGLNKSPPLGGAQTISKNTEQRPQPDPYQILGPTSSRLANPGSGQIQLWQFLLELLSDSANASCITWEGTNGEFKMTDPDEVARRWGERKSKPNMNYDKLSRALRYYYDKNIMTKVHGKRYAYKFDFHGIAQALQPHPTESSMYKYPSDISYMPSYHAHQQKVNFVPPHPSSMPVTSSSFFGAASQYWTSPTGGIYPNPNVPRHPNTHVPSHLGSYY

EHF = target: T2, EHF (UniProt Q9NZC4)
T2 sequence: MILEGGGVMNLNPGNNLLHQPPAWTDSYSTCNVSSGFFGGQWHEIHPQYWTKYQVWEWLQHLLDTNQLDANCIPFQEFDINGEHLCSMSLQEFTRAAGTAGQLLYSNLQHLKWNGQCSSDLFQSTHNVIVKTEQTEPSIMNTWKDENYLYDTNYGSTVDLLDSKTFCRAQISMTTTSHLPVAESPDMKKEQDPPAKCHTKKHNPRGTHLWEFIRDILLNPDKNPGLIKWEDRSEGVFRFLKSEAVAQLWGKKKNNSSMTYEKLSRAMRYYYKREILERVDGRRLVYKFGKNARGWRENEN

SPIB = SPIB (UniProt Q01892)
ETV5 = ETV5 (UniProt P41161)
ELF4 = ELF4 (UniProt Q99607)
ETV2 = target: T3, ETV2 (UniProt O00321)
T3 sequence: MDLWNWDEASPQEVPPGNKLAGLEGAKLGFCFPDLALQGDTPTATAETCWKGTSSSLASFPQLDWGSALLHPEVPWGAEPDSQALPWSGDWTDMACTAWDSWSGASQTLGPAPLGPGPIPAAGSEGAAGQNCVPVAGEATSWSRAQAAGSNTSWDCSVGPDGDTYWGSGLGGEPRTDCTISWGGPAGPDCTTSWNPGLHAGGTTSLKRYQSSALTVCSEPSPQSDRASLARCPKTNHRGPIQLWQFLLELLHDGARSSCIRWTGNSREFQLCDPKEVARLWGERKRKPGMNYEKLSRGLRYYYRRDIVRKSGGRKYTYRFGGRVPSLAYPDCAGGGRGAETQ

ETV3L = target: T4, ETV3L (UniProt Q6ZN32)
T4 sequence: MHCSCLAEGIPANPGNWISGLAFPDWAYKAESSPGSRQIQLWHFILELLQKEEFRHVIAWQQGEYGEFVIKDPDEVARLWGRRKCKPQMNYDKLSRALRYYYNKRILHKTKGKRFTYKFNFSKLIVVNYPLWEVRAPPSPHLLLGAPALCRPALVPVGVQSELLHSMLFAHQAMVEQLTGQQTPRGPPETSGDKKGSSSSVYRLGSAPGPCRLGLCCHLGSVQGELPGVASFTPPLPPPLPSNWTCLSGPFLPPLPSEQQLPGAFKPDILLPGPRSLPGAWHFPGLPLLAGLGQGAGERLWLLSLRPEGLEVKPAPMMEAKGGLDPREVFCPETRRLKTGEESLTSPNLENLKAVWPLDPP

| Sequence | binding signal (FLI1) | binding signal (EHF) | binding signal (SPIB) | binding signal (ETV5) | binding signal (ELF4) | binding signal (ETV2) | binding signal (ETV3L) |
| --- | --- | --- | --- | --- | --- | --- | --- |
| TGTAGA | 0.958 | 0.93 | 0.907 | 0.93 | 0.977 | 0.96 | 0.911 |
| AGTACG | 0.891 | 0.947 | 0.899 | 0.962 | 0.856 | 0.888 | 0.887 |
| TAAGAG | 0.874 | 0.953 | 0.89 | 0.861 | 0.908 | 0.86 | 0.91 |
| GAGCTT | 0.958 | 0.987 | 0.913 | 1.04 | 0.891 | 0.948 | 0.89 |
| GATAAG | 0.93 | 0.904 | 0.883 | 0.819 | 0.989 | 0.958 | 0.932 |
| TAAGGC | 0.962 | 0.871 | 0.962 | 0.93 | 0.937 | 0.967 | 0.959 |
| AGGGAT | 0.806 | 0.837 | 0.763 | 0.757 | 0.873 | 0.715 | 0.816 |
| GCAAGC | 0.967 | 0.862 | 0.94 | 0.88 | 0.938 | 0.889 | 0.905 |
| ATTAGA | 0.934 | 0.898 | 0.86 | 0.847 | 0.917 | 0.986 | 0.863 |
| TGTTAG | 0.892 | 0.979 | 0.941 | 0.927 | 0.978 | 1.03 | 0.833 |
| GATCTG | 0.903 | 0.98 | 0.902 | 0.911 | 0.941 | 0.876 | 0.95 |
| GCGATT | 0.9 | 0.889 | 0.863 | 0.89 | 0.945 | 0.852 | 0.959 |
| TAGAGA | 0.813 | 0.838 | 0.766 | 0.858 | 0.845 | 0.917 | 0.804 |
| GTGCAC | 0.912 | 0.972 | 0.93 | 0.965 | 0.931 | 0.974 | 0.868 |
| GAGAAT | 0.778 | 0.692 | 0.738 | 0.745 | 0.673 | 0.721 | 0.81 |
| AGCATA | 0.894 | 0.967 | 0.879 | 0.933 | 0.947 | 0.981 | 0.929 |
| CCAAGA | 0.903 | 0.932 | 0.807 | 0.876 | 0.94 | 0.925 | 0.864 |
| GGTTGT | 0.967 | 0.959 | 0.911 | 0.919 | 0.863 | 0.969 | 0.904 |
| GTAGAA | 0.955 | 0.902 | 0.873 | 0.879 | 0.936 | 0.898 | 0.893 |
| GCGCAC | 0.907 | 0.938 | 0.877 | 0.885 | 0.889 | 0.985 | 1.03 |
| GGGATT | 0.847 | 0.862 | 0.811 | 0.901 | 0.862 | 0.859 | 0.919 |
| ACGCCA | 0.88 | 0.847 | 0.916 | 0.887 | 0.988 | 0.764 | 0.961 |
| GATCGA | 0.806 | 0.81 | 0.81 | 0.848 | 0.861 | 0.77 | 0.837 |

Given with bars between the fields: part of the list above
Sequence | binding signal (FLI1) | binding signal (EHF) | binding signal (SPIB) | binding signal (ETV5) | binding signal (ELF4) | binding signal (ETV2) | binding signal (ETV3L)
AGTACG | 0.891 | 0.947 | 0.899 | 0.962 | 0.856 | 0.888 | 0.887
TAAGAG | 0.874 | 0.953 | 0.89 | 0.861 | 0.908 | 0.86 | 0.91
GAGCTT | 0.958 | 0.987 | 0.913 | 1.04 | 0.891 | 0.948 | 0.89
GATAAG | 0.93 | 0.904 | 0.883 | 0.819 | 0.989 | 0.958 | 0.932
TAAGGC | 0.962 | 0.871 | 0.962 | 0.93 | 0.937 | 0.967 | 0.959
AGGGAT | 0.806 | 0.837 | 0.763 | 0.757 | 0.873 | 0.715 | 0.816
GCAAGC | 0.967 | 0.862 | 0.94 | 0.88 | 0.938 | 0.889 | 0.905
ATTAGA | 0.934 | 0.898 | 0.86 | 0.847 | 0.917 | 0.986 | 0.863
TGTTAG | 0.892 | 0.979 | 0.941 | 0.927 | 0.978 | 1.03 | 0.833
GATCTG | 0.903 | 0.98 | 0.902 | 0.911 | 0.941 | 0.876 | 0.95

Next entries.

| Sequence | binding signal (FLI1) | binding signal (EHF) | binding signal (SPIB) | binding signal (ETV5) | binding signal (ELF4) | binding signal (ETV2) | binding signal (ETV3L) |
| --- | --- | --- | --- | --- | --- | --- | --- |
| GGATTA | 0.896 | 0.822 | 0.852 | 0.861 | 0.81 | 0.896 | 0.921 |
| CGTCGA | 0.925 | 0.912 | 0.909 | 0.872 | 0.939 | 1.01 | 0.857 |
| TCGCGA | 0.881 | 0.839 | 0.83 | 0.826 | 0.896 | 0.903 | 0.829 |
| CTGGCG | 0.905 | 0.869 | 0.714 | 0.728 | 0.866 | 0.82 | 0.824 |
| GAAAGT | 0.827 | 0.822 | 0.846 | 0.863 | 0.828 | 0.812 | 0.846 |
| GCCACA | 0.935 | 0.929 | 0.874 | 0.971 | 0.956 | 0.912 | 0.946 |
| GCCATC | 0.903 | 0.957 | 0.964 | 0.946 | 0.968 | 0.959 | 1.03 |
| CTGTGT | 0.869 | 0.763 | 0.798 | 0.844 | 0.904 | 0.997 | 0.841 |
| ACAGAA | 0.892 | 0.994 | 0.954 | 0.935 | 0.925 | 0.996 | 0.911 |
| AGCAGA | 0.871 | 0.963 | 0.901 | 0.934 | 0.925 | 0.971 | 0.91 |
| AGTTAT | 0.967 | 0.911 | 0.882 | 0.951 | 0.826 | 0.886 | 0.853 |
| AGAGAA | 0.81 | 0.833 | 0.738 | 0.839 | 0.846 | 0.853 | 0.827 |
| TTAGTC | 0.762 | 0.785 | 0.753 | 0.806 | 0.793 | 0.821 | 0.859 |
| CTAGTG | 0.844 | 0.936 | 0.92 | 0.855 | 0.865 | 0.807 | 0.885 |
| TACGAG | 0.9 | 0.896 | 0.891 | 0.917 | 0.958 | 0.854 | 0.909 |
| CTTGAG | 1.08 | 0.943 | 0.906 | 0.948 | 0.979 | 0.978 | 0.887 |
| GTAGCG | 0.908 | 0.883 | 0.887 | 0.92 | 0.89 | 0.94 | 0.875 |
| GGATAA | 0.782 | 0.788 | 0.78 | 0.792 | 0.775 | 0.808 | 0.763 |
| GGAATG | 0.838 | 0.868 | 0.924 | 0.839 | 0.843 | 0.937 | 0.918 |
| GGATCA | 0.772 | 0.807 | 0.768 | 0.792 | 0.813 | 0.841 | 0.879 |
| CCAGAT | 0.925 | 0.876 | 0.977 | 0.872 | 0.919 | 0.822 | 0.928 |
| TCCGAG | 0.853 | 0.862 | 0.982 | 0.865 | 0.9 | 0.917 | 0.871 |
